Laboratory results published in PubChem BioAssay AID248 (DTP/NCI, 2004).
The list shows only some results of the screen, not a fair sample: it gathers tests that were run many times, whatever their T/C, doses with no T/C, and many T/C values between a quarter and a half above the control. Other doses and runs of a compound stand elsewhere. T/C is the treated group as % of the vehicle group. Some entries give survivors of the animals treated and no T/C: the source holds a T/C of zero for them, seemingly a mark for toxic or unscored doses. Some survivor counts are full or nearly so, which does not show that the dose was tolerated: the source hardly ever lists a survival T/C far under the control, and the zero likely stands for such cases as well. Counts of survivors are from the toxicity check (mostly the fifth day) where no day follows; animals may have died later. Schedules are NCI's codes, taken here to give the interval after Q, in days (D) or hours (H), and the number of doses after X. Some entries hold several experiments; the results are listed from low to high. For survival time, this PubChem deposit counts one and a half times the control or more as active, and values a quarter to a half above the control carry no call in these data; other NCI protocols may use other cut-offs. Some T/C values are followed by the survivors on the day toxicity was checked, most often the fifth; where none is given, no animal had died by that day.

Test system: L1210 leukemia ip in BDF1 mice, survival T/C
Experiment: NCI In Vivo Anticancer Drug Screen. Data for tumor model L1210 Leukemia (intraperitoneal) in B6D2F1 (BDF1) mice
Settings: T/C endpoint: mean survival time, higher T/C = longer survival
[1] = dose: 400.0 mg/kg/injection, schedule: Q04DX003 (ip), vehicle: carboxymethylcellulose (CMC)
[2] = dose: 400.0 mg/kg/injection, schedule: Q04DX002 (ip), vehicle: saline with Tween-80
[3] = dose: 400.0 mg/kg/injection, schedule: Q01DX001 (ip), vehicle: carboxymethylcellulose (CMC)
[4] = dose: 300.0 mg/kg/injection, schedule: Q01DX001 (ip), vehicle: saline
[5] = dose: 400.0 mg/kg/injection, schedule: Q01DX009 (ip), vehicle: saline
[6] = dose: 400.0 mg/kg/injection, schedule: Q01DX001 (ip), vehicle: Klucel (hydroxypropylcellulose) (HPC)
[7] = dose: 200.0 mg/kg/injection, schedule: Q04DX003 (ip), vehicle: saline
[8] = dose: 400.0 mg/kg/injection, schedule: Q01DX009 (ip), vehicle: carboxymethylcellulose (CMC)
[9] = dose: 200.0 mg/kg/injection, schedule: Q01DX009 (ip), vehicle: Klucel (hydroxypropylcellulose) (HPC)

In the case of `OCC1C2CCC(O2)C1CO` (stereo not given), the T/C (dose: 3.0 mg/kg/injection, schedule: Q04DX002 (ip), vehicle: saline) was 125 % of control, the survivor count (dose: 200.0 mg/kg/injection, schedule: Q04DX002 (ip), vehicle: saline) was 1 of 3 and the survivor count (dose: 400.0 mg/kg/injection, schedule: Q04DX002 (ip), vehicle: saline) was 0 of 3.

In the case of `[O-]/[N+](=C\c1ccccc1)Cc1ccccc1`, the survivor count [1] was 3 of 6.

`CCOC(=O)/C=C/Sc1ccccc1` was tested, and the survivor count (dose: 100.0 mg/kg/injection, schedule: Q04DX002 (ip), vehicle: saline with Tween-80) was 1 of 3, the survivor count (dose: 200.0 mg/kg/injection, schedule: Q04DX002 (ip), vehicle: saline with Tween-80) was 0 of 3 and the survivor count [2] was 0 of 3.

With `C/C(=C/c1ccccc1)OC(=O)c1ccccc1` the survivor count (dose: 200.0 mg/kg/injection, schedule: Q01DX001 (ip), vehicle: carboxymethylcellulose (CMC)) was 4 of 4 and the survivor count [3] was 4 of 4.

For `Cc1ccc(NC(=O)CC#N)c(C)c1`, the survivor count [2] was 1 of 3.

`CCOC(=O)c1ccc(Nc2nnc(-c3ccccc3Cl)s2)cc1` was tested, and the survivor count (dose: 50.0 mg/kg/injection, schedule: Q04DX002 (ip), vehicle: gum acacia) was 3 of 3 and the survivor count (dose: 100.0 mg/kg/injection, schedule: Q04DX002 (ip), vehicle: gum acacia) was 3 of 3.

For `c1ccc2c3c([nH]c2c1)C1CC2CCCCC2CN1CC3` (stereo not given), the survivor count [4] was 0 of 6.

In the case of `O=CNNC(=O)c1cnccn1`, the T/C [5] was 128 % of control [4 of 6 alive], the survivor count [5] was 2 of 6 and the survivor count (dose: 600.0 mg/kg/injection, schedule: Q01DX009 (ip), vehicle: saline) was 2 of 6.

With `COc1ccccc1-n1c(O)c(N=Nc2ccc(Cl)cc2)c(=O)n(-c2ccc(Br)cc2)c1=S` the survivor count [6] was 3 of 6.

In the case of `CCN(CC)c1ccc(NC(C)S(=O)(=O)O)cc1` (stereo not given), the survivor count (dose: 100.0 mg/kg/injection, schedule: Q01DX009 (ip), vehicle: saline with Tween-80) was 4 of 6, the survivor count (dose: 200.0 mg/kg/injection, schedule: Q01DX009 (ip), vehicle: saline with Tween-80) was 0 of 6 and the survivor count (dose: 400.0 mg/kg/injection, schedule: Q01DX009 (ip), vehicle: saline with Tween-80) was 0 of 6.

For `CCN(CC)CC#N`, the survivor count (dose: 16.0 mg/kg/injection, schedule: Q01DX009 (ip), vehicle: saline) was 3 of 6 and the survivor count (dose: 32.0 mg/kg/injection, schedule: Q01DX009 (ip), vehicle: saline) was 0 of 6.

In the case of `C[N+](C)(C)CCOc1ccccc1Cc1ccccc1`, the survivor count (dose: 6.25 mg/kg/injection, schedule: Q01DX009 (ip), vehicle: saline) was 2 of 6, the survivor count (dose: 18.0 mg/kg/injection, schedule: Q01DX009 (ip), vehicle: saline) was 0 of 6 and the survivor count (dose: 25.0 mg/kg/injection, schedule: Q04DX003 (ip), vehicle: saline) was 4 of 6. The survivor count (dose: 28.0 mg/kg/injection, schedule: Q01DX009 (ip), vehicle: saline) was 0 of 6, the survivor count (dose: 40.0 mg/kg/injection, schedule: Q01DX009 (ip), vehicle: saline) was 0 of 6 and the survivor count (dose: 50.0 mg/kg/injection, schedule: Q04DX003 (ip), vehicle: saline) was 0 of 6. The survivor count (dose: 100.0 mg/kg/injection, schedule: Q04DX003 (ip), vehicle: saline) was 0 of 6, the survivor count [7] was 0 of 6 and the survivor count (dose: 400.0 mg/kg/injection, schedule: Q04DX003 (ip), vehicle: saline) was 0 of 6.

`CCC[CH2][Sn]([S][Sn]([CH2]CCC)([c]1ccccc1)[c]1ccccc1)([c]1ccccc1)[c]1ccccc1` was tested, and the survivor count [2] was 1 of 3.

In the case of `COc1cc2c(cc1OC)C1(CCBr)C3CC4C(=CCOC5CC(=O)N2C1C54)CN3C(=O)Cc1ccccc1` (stereo not given), the survivor count (dose: 150.0 mg/kg/injection, schedule: Q01DX001 (ip), vehicle: saline) was 0 of 6 and the survivor count [4] was 0 of 6.

In the case of `C1=C(c2ccccc2)N=C(c2ccccc2)C2C(c3ccccc3)N2C1c1ccccc1` (stereo not given), the survivor count [6] was 3 of 3.

`CCCCCCC(=O)N(CC(C)C)CC(C)C` was tested, and the survivor count [8] was 1 of 3 and 3 of 6.

In the case of `CCN(CC)CCCC(C)NC(=O)c1cc(=O)[nH]c(=O)[nH]1` (stereo not given), the survivor count (dose: 200.0 mg/kg/injection, schedule: Q01DX009 (ip), vehicle: water) was 3 of 6, the survivor count (dose: 400.0 mg/kg/injection, schedule: Q01DX009 (ip), vehicle: water) was 0 of 6 and the survivor count (dose: 400.0 mg/kg/injection, schedule: Q04DX003 (ip), vehicle: water) was 0 of 6.

`O=C(NNc1ccccc1)Nc1ccccc1` was tested, and the survivor count [9] was 6 of 6 and the survivor count (dose: 400.0 mg/kg/injection, schedule: Q01DX009 (ip), vehicle: Klucel (hydroxypropylcellulose) (HPC)) was 1 of 6.

For `S=P(Oc1ccccc1)(N1CC1)N1CC1`, the survivor count [7] was 6 of 6 and the survivor count (dose: 400.0 mg/kg/injection, schedule: Q01DX001 (ip), vehicle: saline) was 6 of 6.

`NC(=O)c1cc([N+](=O)[O-])c(Cl)c([N+](=O)[O-])c1Cl` was tested, and the survivor count (dose: 16.0 mg/kg/injection, schedule: Q01DX015 (ip), vehicle: carboxymethylcellulose (CMC)) was 0 of 6 and the survivor count (dose: 32.0 mg/kg/injection, schedule: Q01DX015 (ip), vehicle: carboxymethylcellulose (CMC)) was 0 of 6.

`CN1C(=O)N(Br)C(C)(C)C1=O` was tested, and the survivor count [9] was 3 of 6 and the survivor count [6] was 2 of 6.

`CS(=O)(=O)Nc1ccc(Nc2c3ccccc3nc3cc(N)ccc23)cc1` was tested, and the T/C (dose: 0.12 mg/kg/injection, schedule: Q01DX009 (ip), vehicle: saline) was 125 % of control, the T/C (dose: 0.18 mg/kg/injection, schedule: Q01DX009 (ip), vehicle: saline) was 129 % of control and the T/C (dose: 0.27 mg/kg/injection, schedule: Q01DX009 (ip), vehicle: saline) was 145 % of control. The T/C (dose: 1.0 mg/kg/injection, schedule: Q01DX009 (sc), vehicle: saline) was 131 % of control, the T/C (dose: 2.0 mg/kg/injection, schedule: Q01DX009 (sc), vehicle: saline) was 127 % of control and the survivor count (dose: 2.5 mg/kg/injection, schedule: Q01DX009 (ip), vehicle: saline) was 6 of 6. For the same molecule, the survivor count (dose: 8.0 mg/kg/injection, schedule: Q01DX009 (sc), vehicle: saline) was 10 of 10, the T/C (dose: 10.0 mg/kg/injection, schedule: Q01DX001 (ip), vehicle: saline) was 132 % of control and the survivor count (dose: 10.0 mg/kg/injection, schedule: Q01DX009 (ip), vehicle: saline) was 5 of 6. For the same molecule, the survivor count (dose: 20.0 mg/kg/injection, schedule: Q01DX009 (ip), vehicle: saline) was 0 of 6 and the survivor count (dose: 80.0 mg/kg/injection, schedule: Q01DX001 (ip), vehicle: saline) was 0 of 6.

In the case of `CCOC(=O)C(O)(CC)c1cc[n+](Cc2cc3ccccc3nc2Cl)cc1C` (stereo not given), the survivor count (dose: 200.0 mg/kg/injection, schedule: Q01DX001 (ip), vehicle: saline) was 2 of 6.

In the case of `O=C(O)c1ccc([N+](=O)[O-])cc1F`, the survivor count [3] was 2 of 6, the survivor count [8] was 2 of 3 and the survivor count [1] was 6 of 6.

With `CSc1ncnc2c1nnn2C1OC(COC(=O)c2ccccc2)C(OC(=O)c2ccccc2)C1OC(=O)c1ccccc1` (stereo not given) the survivor count (dose: 200.0 mg/kg/injection, schedule: Q01DX009 (ip), vehicle: gum acacia) was 6 of 6 and the survivor count (dose: 400.0 mg/kg/injection, schedule: Q01DX001 (ip), vehicle: gum acacia) was 6 of 6.

For `CCCCNC(=O)c1ccccc1-c1ccccc1C(=O)NCCCC`, the survivor count (dose: 400.0 mg/kg/injection, schedule: Q01DX001 (ip), vehicle: other) was 2 of 4.
